{
  "source": "ChEMBL document CHEMBL1154904",
  "about": "(J Med Chem, 2010)",
  "key": {"in vitro [1]": {"assay": "in vitro", "settings": "human, Caco-2"}, "in vitro [2]": {"assay": "in vitro", "settings": "human, Caco-2", "remark": "listed apart in the source"}},
  "data": [
    {"smiles": "Cc1cnc(NCCc2ccc(C(F)(F)F)cc2)c(=O)n1CC(=O)NCCONC(=N)N", "values": [
      {"measurement": "Papp A→B", "setting": "in vitro [1]", "value": 0.74, "unit": "×10⁻⁶ cm/s"},
      {"measurement": "Papp B→A", "setting": "in vitro [2]", "value": 3.32, "unit": "×10⁻⁶ cm/s"}
    ]}
  ]
}
